What was measured:
[1] = rabbit, in vivo
Watanabe rabbits = assay: Lipid profile (plasmatic cholesterol, triglycerides, HDL, LDL) in treated Watanabe rabbits; type: in vivo, rabbit; details: for plasmatic triglycerides concentration, course: FIG. 4
Method: 2. […] The cholesterol is assayed according to an enzymatic colorimetric test using a cholesterol-esterase and a cholesterol-oxidase, followed by a reaction with a peroxidase. The latter reacts with hydrogen peroxide and releases a red derivative the stain intensity of which (measured between 550 and 700 nm) is directly proportional to the cholesterol concentration. The triglyceride assay is also based on this principle, using a lipase which releases glycerol, and a peroxidase which reacts with the hydrogen peroxide and forms a red compound. The HDL cholesterol is assayed by an enzymatic calorimetric test in two phases. The first selects the different lipid fractions by means of dextran sulphate. […] The results are expressed in mmol/l. The kits necessary for all these assays are supplied by RANDOX (Montpellier, France).

CC(C)c1c(C(=O)Nc2ccccc2)c(-c2ccccc2)c(-c2ccc(F)cc2)n1CC[C@@H](O)C[C@@H](O)CC(=O)O [atorvastatin, Atorvastatin]
plasmatic arginine concentration, course [1]: the same for the control group and the statin group | effect on the plasmatic cholesterol (Watanabe rabbits; 8 weeks treatment, versus control at T8, FIG. 3): beneficial effect | reduction of the plasmatic cholesterol concentration (Watanabe rabbits; between T0 and T8): 27% | plasmatic triglycerides concentration, course (Watanabe rabbits; between T0 and T8): virtually constant | plasmatic triglycerides concentration, course (Watanabe rabbits; between T0 and T8, listed as atorvastatin alone): does not increase

— patent US20080312263A1, “PHARMACEUTICAL COMPOSITIONS FOR THE PREVENTION AND TREATMENT OF ATHEROSCLEROSIS” (UNIVERSITE RENE DESCARTES-PARIS 5, priority 2004, published 2008)
